Data taken from patent US20100160234A1.
These are yes or no findings as the source states them, for the method shown. Some entries that bind do so weakly or less than the wild type. Tags and fused reporters may be left off the sequences shown.

Chains of the proteins cited; added tags and fusions are not shown.
UniProt P06730: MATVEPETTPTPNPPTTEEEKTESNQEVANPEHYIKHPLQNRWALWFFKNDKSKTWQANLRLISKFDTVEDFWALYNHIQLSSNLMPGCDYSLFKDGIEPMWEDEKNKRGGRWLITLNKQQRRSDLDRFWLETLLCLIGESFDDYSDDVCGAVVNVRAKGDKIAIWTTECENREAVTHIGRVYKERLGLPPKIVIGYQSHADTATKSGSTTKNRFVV

Molecular target: Human eIF4E (immobilised in ELISA wells) (human) (UniProt P06730)
Test: ELISA, human eIF4E coated on the plate, GST-fusion peptide detected with anti-GST HRP antibody

RKKGKGKGTTVGMGKSSRRFINMYGF (peptide, not shown: a dimerising Fc or GST) [GST-fusion of VPg5 (SEQ ID NO: 18)]
binding: binds
